The other results are listed elsewhere or left out.
B1: il2ra_site1_2b5i_sap_17_mot_HHH_b1_01346_af2_000000027_0001_1_20_H_._HHH_b2_01738_0001_0000100001_0000001_0_0001_af2pred_dldesign_0_af2pred (protein)
chain: SSSSSPVLDEAREDILEAAEKGDKELLEHLLSQLQKYYDLTKDPRVKELIELALEELEKLSSSSS
B2: il2ra_site1_3nfp_normal_mot_HHH_b1_01231_af2_000000170_0001_1_16_H_._HHH_b1_03581_0001_0000200016_0000001_1_af2pred_0001_af2pred_swapped (protein)
chain: SSSSSREEVEELVEEAREAAEEGDRKKARELVRAILELAKETGDPEISKLLEELLEFLWRLSSSS
B3: il2ra_site1_1z92_sap_19_mot_HHH_b2_05687_000000267_0001_41_56_H_._ems_3hM_3687_0001_0000200012_0000001_0_0001 (protein)
chain: SSSSDEEVLELWKRVAELMREGNIEEAKELVEEAIRLAREAGDERLAKDLERFLERIEESDSSSS
B4: il2ra_site2_3nfp_sap_23_mot_HHH_b1_06158_af2_000000274_0001_1_17_H_._HHH_b1_03883_0001_0000300010_0000001_0_0001 (protein)
chain: SSSSSSRAIEVALEAARQASENIDDEELRERLEELIEELEEKNDPEVALEIYKLLREIYKSSSSS
B5: il2ra_site2_3nfp_sap_23_mot_32bc48042d8ba3d1c0734e77886dd373_0001_1_000000143_0001_36_50_H_._HHH_b1_05006_0001_0000500022_0000001_1_0001_af2pred_0001_1_af2pred_ … (protein)
chain: SSSSSSSDEERVEELLEEAKEIDDEHEFFAVLLLALEIALESRNEELERLVKKVAKEFRSSSSSS
B6: il2ra_site1_3nfp_sap_23_mot_HHH_b1_08723_000000044_0001_1_15_H_._HHH_b2_07756_0001_0000200015_0000001_0_0001_af2pred_0001_af2pred_swapped (protein)
chain: SSSSDVEERVKELLEEAKELLEEGNPEEAAKVLKEALRLAREADDPELVELVARVQEEIARSSSS
B7: il2ra_site1_2b5i_normal_mot_0e5a94e4a5addaac739760efb25f0f5d_0001_000000246_0001_18_32_H_._HHH_b1_03690_0001_0000500022_0000001_0_af2pred_dldesign_0_af2pred (protein)
chain: SSSSSSSLEKAEKAVAEARALYEAGKPREARKLLIKTLYECELAGDEEAVKVIRDELERLESSSS
B8: il2ra_site2_3nfp_normal_mot_HHH_b1_02359_000000112_0001_1_19_H_._ems_3hC_696_af2_0001_0000500010_0000001_0 (protein)
chain: TERLIKLAKIAAELLRREWKDDPEIKRLVEEALEELEQAEEENDEELITEVAQKIMEIFEEATKS
B9: il2ra_site1_1z92_sap_18_mot_HHH_b1_07828_af2_000000107_0001_18_34_H_._HHH_b1_01450_0001_0000200015_0000001_0_0001_af2pred_0001_af2pred (protein)
chain: SSSSSRELAKIISKLVAEFKLSLEDSRELLELALELLERGYSEEEIEELLKELAKELKEGSSSSS
B10: il2ra_site2_2erj_normal_mot_90f6a21de4ed711cb697bb9f61d9c40c_0001_af2_000000135_0001_36_50_H_._HHH_b2_03327_0002_0000300012_0000001_0_af2pred_0001_af2pred_1 (protein)
chain: SSSDREEVAKRVVEELVEELGLDEEAQRLLELAAELAIEAGLSPEQIEQYLRLLAEQLLEIASSS
B11: il2ra_site1_3nfp_sap_12_mot_HHH_b2_04441_af2_000000141_0001_1_20_H_._HHH_b1_03000_af2_0001_0000400056_0000001_0_0001 (protein)
chain: DKVVEFLFRQLRRTKPPEEVVKELLEDAERILGDPEAAEEIVRRVLKALGFSPEEIEELIEEARK
B12: il2ra_site2_3nfp_sap_23_mot_HHH_b2_02049_000000004_0001_42_55_H_._HHH_b2_04533_af2_0001_0000100001_0000001_0_0001 (protein)
chain: DEEEEIERLLEELRKQFPPERVVFIVSAELWHLGIDPREILELLQEVLEKLNDPELERVLEELRT
B13: il2ra_site2_3nfp_sap_18_mot_HHH_b1_02297_000000279_0001_41_58_H_._HHH_b2_03552_0001_0000100005_0000001_0_0001 (protein)
chain: SSSSSDEEEVRELLEEAERLAENGNPEEALQLLLEAASIAWRNNNEELYELVSRVAHELISSSSS
B14: il2ra_site2_2erj_normal_mot_HHH_b1_08162_af2_000000254_0001_40_56_H_._HHH_b2_02886_af2_0001_0000800019_0000001_0 (protein)
chain: SSSSDEEEVEELLERAKELLEEGNPEEAFAVVAEAALLAAEAGSPLFEEASRIFEELYHLQSSSS
B15: il2ra_site2_3nfp_sap_15_mot_HHH_b2_04386_000000117_0001_36_52_H_._HHH_b1_03149_0001_0000200016_0000001_1_0001 (protein)
chain: SSSSDHREKYLKAALALLEWAIERRDEYVVESLIEVLEAAIEDANDEEAEELLERLKREFGSSSS
B16: il2ra_site2_2erj_normal_mot_8a316d4779eb53efc793250774d75e68_0001_af2_000000043_0001_18_32_H_._03d1612f130aec461e27f81ac552cf35_0001_af2_0001_0000100001_0000001 … (protein)
chain: SEEVDRISREAYEKNDPRLASVAAEVAWLILRDPRLEEEVEELLQRLERGELPPEEVLKLLEELK
B17: il2ra_site2_2erj_sap_22_mot_HHH_b2_04755_af2_000000255_0001_22_38_H_._HHH_b1_02474_0001_0001400015_0000001_0_0001_af2pred_0001_af2pred (protein)
chain: SSSSSDKEEVEERVEELLEEARKIPDPREALKVLQEASELAAKLDDDELLEEIAKVARELSSSSS
B18: il2ra_site1_1z92_sap_14_mot_3afbd42359c492d9a5ba12d7e5b15de5_0001_000000167_0001_17_33_H_._HHH_b2_02962_0001_0000500018_0000001_0_0001 (protein)
chain: TLERDAELALKLAPSPKALRKVLEWALRTIGDPEERRKFIEIVEKIARELGNEELEEAAEEALRK

These binders were tested against il2ra, P01589 (assay: yeast display titration).

Apparent Kd, inactive:
B1 no binding seen, B2 no binding seen, B3 no binding seen, B4 no binding seen, B5 no binding seen, B6 no binding seen, B7 no binding seen, B8 no binding seen, B9 no binding seen, B10 no binding seen, B11 no binding seen, B12 no binding seen, B13 no binding seen, B14 no binding seen, B15 no binding seen, B16 no binding seen, B17 no binding seen, B18 no binding seen

Reference: publication PMC10163288
